Measured values from publication PMC6276444.
These are yes or no findings as the source states them, for the method shown. Binding seen in cells or lysates may run through a third protein. Some entries that bind do so weakly or less than the wild type.

T1: Nox2 (gp91-phox) (human (endogenous in B1647)) (UniProt P04839)
T1 sequence: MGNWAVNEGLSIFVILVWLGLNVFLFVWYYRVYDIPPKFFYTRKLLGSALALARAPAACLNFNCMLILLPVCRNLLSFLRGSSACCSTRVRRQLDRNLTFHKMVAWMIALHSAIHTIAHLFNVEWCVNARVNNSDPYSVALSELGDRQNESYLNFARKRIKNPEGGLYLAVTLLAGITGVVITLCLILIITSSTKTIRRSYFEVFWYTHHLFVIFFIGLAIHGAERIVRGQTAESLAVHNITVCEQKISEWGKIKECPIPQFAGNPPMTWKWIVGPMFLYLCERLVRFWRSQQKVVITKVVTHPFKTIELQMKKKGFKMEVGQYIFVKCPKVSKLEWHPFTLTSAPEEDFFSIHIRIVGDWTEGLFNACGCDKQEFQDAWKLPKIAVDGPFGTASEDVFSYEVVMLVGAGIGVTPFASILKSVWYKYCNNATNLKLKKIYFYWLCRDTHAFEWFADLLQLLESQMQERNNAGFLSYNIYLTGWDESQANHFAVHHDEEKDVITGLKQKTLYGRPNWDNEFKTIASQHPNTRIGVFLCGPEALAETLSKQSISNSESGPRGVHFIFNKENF

T2: aquaporin-8 (human (endogenous in B1647)) (UniProt O94778)
T2 sequence: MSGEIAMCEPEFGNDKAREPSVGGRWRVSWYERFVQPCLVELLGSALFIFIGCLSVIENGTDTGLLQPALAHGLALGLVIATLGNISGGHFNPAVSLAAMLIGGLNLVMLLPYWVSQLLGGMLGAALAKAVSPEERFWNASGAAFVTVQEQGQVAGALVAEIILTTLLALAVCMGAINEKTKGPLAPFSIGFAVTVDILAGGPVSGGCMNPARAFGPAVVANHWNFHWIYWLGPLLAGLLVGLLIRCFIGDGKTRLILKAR


Columns and labels:
[1] = target: T1, Nox2 (gp91-phox) (human (endogenous in B1647)); assay: co-IP; reverse ('vice-versa') immunoprecipitation: IP for Nox2 and WB for AQP8, B1647 cells; data not shown
[2] = target: T2, aquaporin-8 (human (endogenous in B1647)); assay: co-IP; B1647 cells, control or treated with SFN for 24 h, lysed in RIPA buffer; lysates incubated overnight with anti-AQP8 antibody, protein G-agarose 1.5 h at 4°C, 5 washes with buffer pH 8; Western blot with anti-Nox2

binding [1] | binding [2] | Binder
binds |  | aquaporin-8 (protein, UniProt O94778 1-261) MSGEIAMCEPEFGNDKAREPSVGGRWRVSWYERFVQPCLVELLGSALFIFIGCLSVIENGTDTGLLQPALAHGLALGLVIATLGNISGGHFNPAVSLAAMLIGGLNLVMLLPYWVSQLLGGMLGAALAKAVSPEERFWNASGAAFVTVQEQGQVAGALVAEIILTTLLALAVCMGAINEKTKGPLAPFSIGFAVTVDILAGGPVSGGCMNPARAFGPAVVANHWNFHWIYWLGPLLAGLLVGLLIRCFIGDGKTRLILKAR
 | binds | Nox2 (gp91-phox) (protein, UniProt P04839 1-570) MGNWAVNEGLSIFVILVWLGLNVFLFVWYYRVYDIPPKFFYTRKLLGSALALARAPAACLNFNCMLILLPVCRNLLSFLRGSSACCSTRVRRQLDRNLTFHKMVAWMIALHSAIHTIAHLFNVEWCVNARVNNSDPYSVALSELGDRQNESYLNFARKRIKNPEGGLYLAVTLLAGITGVVITLCLILIITSSTKTIRRSYFEVFWYTHHLFVIFFIGLAIHGAERIVRGQTAESLAVHNITVCEQKISEWGKIKECPIPQFAGNPPMTWKWIVGPMFLYLCERLVRFWRSQQKVVITKVVTHPFKTIELQMKKKGFKMEVGQYIFVKCPKVSKLEWHPFTLTSAPEEDFFSIHIRIVGDWTEGLFNACGCDKQEFQDAWKLPKIAVDGPFGTASEDVFSYEVVMLVGAGIGVTPFASILKSVWYKYCNNATNLKLKKIYFYWLCRDTHAFEWFADLLQLLESQMQERNNAGFLSYNIYLTGWDESQANHFAVHHDEEKDVITGLKQKTLYGRPNWDNEFKTIASQHPNTRIGVFLCGPEALAETLSKQSISNSESGPRGVHFIFNKENF
